This note sets out measurements from patent US20230364265A1.

The chains behind the UniProt entries cited, without tags or fusion partners. Residues count along the entry.
UniProt P06127, residues 25-372: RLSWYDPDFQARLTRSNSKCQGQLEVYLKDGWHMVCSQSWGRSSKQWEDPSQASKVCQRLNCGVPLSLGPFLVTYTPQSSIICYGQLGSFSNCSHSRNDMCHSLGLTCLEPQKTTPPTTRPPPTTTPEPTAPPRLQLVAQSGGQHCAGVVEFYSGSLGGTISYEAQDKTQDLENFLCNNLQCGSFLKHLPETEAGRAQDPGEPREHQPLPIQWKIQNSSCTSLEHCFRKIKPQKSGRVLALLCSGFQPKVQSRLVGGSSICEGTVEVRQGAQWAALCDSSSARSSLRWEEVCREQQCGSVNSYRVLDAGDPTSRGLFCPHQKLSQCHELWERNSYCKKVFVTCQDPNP

Results are given in words; binding and its absence hold for the method and conditions named. Some results given as binding are weak or reduced against the parent protein; the word gives no strength. Sequences can lack the tags named with a protein.

Test [1] concerns the target labeled CD5 protein (Alexa647-conjugated CD5 protein) (UniProt P06127). The experiment in a line: flow cytometry, Alexa647-conjugated CD5 protein on transfected 293 cells.
For test [2] the target is unchanged. Description: flow cytometry, labeled CD5 on transfected HEK293T cells.

B1: CD5-intron-fcr-PI3K (ATAK) recombinant chimeric fusion receptor protein, expressed on HEK293T cells from LINE-1-plasmid_CD5-intron-FCR-PI3K (receptor)
chain: EIQLVQSGGGLVKPGGSVRISCAASGYTFTNYGMNWVRQAPGKGLEWMGWINTHTGEPTYADSFKGRFTFSLDDSKNTAYLQINSLRAEDTAVYFCTRRGYDWYFDVWGQGTTVTVSSGGGGSGGGGSGGGGSDIQMTQSPSSLSASVGDRVTITCRASQDINSYLSWFQQKPGKAPKTLIYRANRLESGVPSRFSGSGSGTDYTLTISSLQYEDFGIYYCQQYDESPWTFGGGTKLEIKSGGGGSGALSNSIMYFSHFVPVFLPAKPTTTPAPRPPTPAPTIASQPLSLRPEACRPAAGGAVHTRGLDIYIWAPLAGTCGVLLLSLVITLYCRRLKIQVRKAAITSYEKSDGVYTGLSTRNQETYETLKHEKPPQGSGSYEDMRGILYAAPQLRSIRGQPGPNHEEDADSYENM
As to B1, the binding result in test [1] and in test [2] was “binds” throughout.
